Patent US20160024558

Molecular target: T1, 9° North DNA polymerase, polymerase-inactive construct Y538H, D540I, T541Y (UniProt Q56366)
T1 sequence (looked up, limits assumed): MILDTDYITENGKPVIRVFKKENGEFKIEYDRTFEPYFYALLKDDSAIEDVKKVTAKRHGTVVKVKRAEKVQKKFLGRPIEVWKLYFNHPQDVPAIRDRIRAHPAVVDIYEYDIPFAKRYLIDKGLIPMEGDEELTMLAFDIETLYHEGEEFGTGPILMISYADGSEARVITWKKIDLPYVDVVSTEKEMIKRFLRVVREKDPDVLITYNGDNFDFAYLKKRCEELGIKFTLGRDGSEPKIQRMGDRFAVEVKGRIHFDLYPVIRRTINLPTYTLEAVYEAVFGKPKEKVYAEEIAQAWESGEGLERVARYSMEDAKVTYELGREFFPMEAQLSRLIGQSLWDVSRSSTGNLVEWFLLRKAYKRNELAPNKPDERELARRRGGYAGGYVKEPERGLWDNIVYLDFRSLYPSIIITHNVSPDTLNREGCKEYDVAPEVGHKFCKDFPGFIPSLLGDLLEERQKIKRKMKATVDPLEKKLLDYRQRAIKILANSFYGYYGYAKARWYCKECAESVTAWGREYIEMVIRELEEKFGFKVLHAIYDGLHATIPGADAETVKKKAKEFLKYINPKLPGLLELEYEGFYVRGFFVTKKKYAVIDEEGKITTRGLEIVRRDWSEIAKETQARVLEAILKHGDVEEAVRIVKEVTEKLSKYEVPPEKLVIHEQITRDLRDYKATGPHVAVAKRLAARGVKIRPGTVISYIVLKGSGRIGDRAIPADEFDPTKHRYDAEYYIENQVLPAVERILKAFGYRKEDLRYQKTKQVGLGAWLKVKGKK
Assay: inhibition of the protein
Details: dideoxyU (so in the source) at position 25 of the template strand; concentration-dependent inhibition of 120 nM active 9° North strand displacement, 55 C; purified recombinant protein

TCGAGCACGCGGCACTTATTGCAAUAGTGCCGAGTCAGCGCGCTGACTCGGC / GCAATAAGTGCCGCGTGCTCGA [FAM U-template / quencher duplex (FIG. 3)]
activity on this sequence: active

Tags and fusion partners may be left off the protein sequences shown.
